The source of these data is patent US20240238263A1, “USE OF PYRIDONE DERIVATIVE CONTAINING HETEROATOM CYCLOBUTANE SUBSTITUENT” (GUANGZHOU JOYO PHARMATECH CO., LTD, priority 2021, published 2024).

This series deals with diabetic rats. Put plainly: Fasting blood glucose monitoring in STZ-diabetic rats with dorsal skin wound, topical administration. Type of series: in vivo, Wistar rats. The conditions noted are these: GeneTime 0.04 mL topical twice daily, mean±S.E.M. As to the method:
In this study, 50 STZ-diabetic rats were used to simulate Type 1 diabetes, with an additional 8 normal rats serving as the control group (normal blank gel control group (without STZ)). The method for modeling the STZ-diabetic rat is as follows: Male Wistar rats were weighed and then intraperitoneally injected with Streptozotocin (STZ, freshly prepared, dissolved in 0.1 M citrate buffer (pH 4.5)) at a dosage of 80 mg/kg. STZ was intraperitoneally injected twice in total, with a 5-day interval between injections. Three days after the second STZ injection, rats with fasting blood glucose levels greater than 250 mg/dl were defined as diabetic model rats. Studies on skin wound healing could be conducted from 1 to 8 weeks after the successful establishment of the diabetic rat model. • 2.
All experimental groups were topically administered. Before administering the medication, wounds were rinsed with physiological saline and any residual moisture was absorbed with a sterile cotton swab. Then, the medication was applied. […] Efficacy assessment • 1) Blood glucose monitoring: Blood samples were obtained from all animals via tail vein sampling, and fasting blood glucose levels were measured on days 0/9/18 using a glucometer. • 2) Evaluation of wound closure:
Experimental data were expressed as the mean±standard error of the mean (mean±S.E.M.). […]

B1: GeneTime: Recombinant Human Epidermal Growth Factor External Solution, 2000 IU/mL; positive control (protein, UniProt P01133 23-1207, looked up)
Pro-epidermal growth factor: PQHWSCPEGTLAGNGNSTCVGPAPFLIFSHGNSIFRIDTEGTNYEQLVVDAGVSVIMDFHYNEKRIYWVDLERQLLQRVFLNGSRQERVCNIEKNVSGMAINWINEEVIWSNQQEGIITVTDMKGNNSHILLSALKYPANVAVDPVERFIFWSSEVAGSLYRADLDGVGVKALLETSEKITAVSLDVLDKRLFWIQYNREGSNSLICSCDYDGGSVHISKHPTQHNLFAMSLFGDRIFYSTWKMKTIWIANKHTGKDMVRINLHSSFVPLGELKVVHPLAQPKAEDDTWEPEQKLCKLRKGNCSSTVCGQDLQSHLCMCAEGYALSRDRKYCEDVNECAFWNHGCTLGCKNTPGSYYCTCPVGFVLLPDGKRCHQLVSCPRNVSECSHDCVLTSEGPLCFCPEGSVLERDGKTCSGCSSPDNGGCSQLCVPLSPVSWECDCFPGYDLQLDEKSCAASGPQPFLLFANSQDIRHMHFDGTDYGTLLSQQMGMVYALDHDPVENKIYFAHTALKWIERANMDGSQRERLIEEGVDVPEGLAVDWIGRRFYWTDRGKSLIGRSDLNGKRSKIITKENISQPRGIAVHPMAKRLFWTDTGINPRIESSSLQGLGRLVIASSDLIWPSGITIDFLTDKLYWCDAKQSVIEMANLDGSKRRRLTQNDVGHPFAVAVFEDYVWFSDWAMPSVMRVNKRTGKDRVRLQGSMLKPSSLVVVHPLAKPGADPCLYQNGGCEHICKKRLGTAWCSCREGFMKASDGKTCLALDGHQLLAGGEVDLKNQVTPLDILSKTRVSEDNITESQHMLVAEIMVSDQDDCAPVGCSMYARCISEGEDATCQCLKGFAGDGKLCSDIDECEMGVPVCPPASSKCINTEGGYVCRCSEGYQGDGIHCLDIDECQLGEHSCGENASCTNTEGGYTCMCAGRLSEPGLICPDSTPPPHLREDDHHYSVRNSDSECPLSHDGYCLHDGVCMYIEALDKYACNCVVGYIGERCQYRDLKWWELRHAGHGQQQKVIVVAVCVVVLVMLLLLSLWGAHYYRTQKLLSKNPKNPYEESSRDVRSRRPADTEDGMSSCPQPWFVVIKEHQDLKNGGQPVAGEDGQAADGSMQPTSWRQEPQLCGMGTEQGCWIPVSSDKGSCPQVMERSFHMPSYGTQTLEGGVEKPHSLLSANPLWQQRALDPPHQMELTQ
modifications: Pro-epidermal growth factor
notes: Recombinant Human Epidermal Growth Factor External Solution, 2000 IU/mL; positive control
On to B1, for which the Fasting blood glucose by setting is: (Day 9) 451.8 ± 11.33 mg/dL; (Day 18) 464.04 ± 3.71 mg/dL.
